No constants are given. Whether binding was seen depends on the method and setting. Binding seen in cells or lysates may run through a third protein. Some binding calls cover weakened binding; strength is not graded here. For part of these data: Sequences can lack the tags named with a protein. Values belong to the binder of their own block, whether it stands above or below them.
Experiments:
GST-SNEP1 (human) = molecular target: T1, GST-SNEP1 (human) (UniProt Q8TAI1); experiment: pull-down; GST-SNEP1 from E. coli on glutathione-Sepharose 4B beads, incubated with lysates of transfected HEK-293T cells; bound proteins by immunoblot; only the target purified
T1 sequence: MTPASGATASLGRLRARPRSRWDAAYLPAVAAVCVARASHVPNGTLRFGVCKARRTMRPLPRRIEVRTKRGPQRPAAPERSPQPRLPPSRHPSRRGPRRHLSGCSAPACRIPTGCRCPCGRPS

[1] = molecular target: T2, LNX1, endogenous in HT-29 cells (human (endogenous in HT-29)) (UniProt Q8TBB1); experiment: co-IP; endogenous proteins; HT-29 cell lysates with the indicated antibodies and protein-A/G beads overnight; bound proteins by immunoblot
T2 sequence: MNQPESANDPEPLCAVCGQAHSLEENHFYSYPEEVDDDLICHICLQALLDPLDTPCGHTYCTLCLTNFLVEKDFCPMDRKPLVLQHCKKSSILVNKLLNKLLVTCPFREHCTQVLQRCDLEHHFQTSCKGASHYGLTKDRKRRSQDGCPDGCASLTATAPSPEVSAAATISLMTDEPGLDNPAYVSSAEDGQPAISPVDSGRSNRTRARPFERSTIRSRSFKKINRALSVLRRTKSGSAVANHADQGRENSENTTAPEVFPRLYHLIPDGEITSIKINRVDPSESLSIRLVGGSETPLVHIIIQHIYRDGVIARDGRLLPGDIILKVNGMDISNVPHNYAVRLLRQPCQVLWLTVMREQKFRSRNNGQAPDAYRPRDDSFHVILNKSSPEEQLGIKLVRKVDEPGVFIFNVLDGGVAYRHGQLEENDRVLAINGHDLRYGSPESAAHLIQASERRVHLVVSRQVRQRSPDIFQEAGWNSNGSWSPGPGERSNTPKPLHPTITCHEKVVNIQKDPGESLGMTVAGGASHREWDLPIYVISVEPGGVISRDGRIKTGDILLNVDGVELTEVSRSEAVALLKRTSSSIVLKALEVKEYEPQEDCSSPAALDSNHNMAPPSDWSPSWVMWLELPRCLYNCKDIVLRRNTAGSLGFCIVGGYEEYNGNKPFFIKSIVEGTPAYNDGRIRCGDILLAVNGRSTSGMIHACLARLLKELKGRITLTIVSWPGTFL

[2] = molecular target: T3, SuFu, endogenous in HT-29 cells (human (endogenous in HT-29)) (UniProt Q9UMX1); experiment: as above
T3 sequence: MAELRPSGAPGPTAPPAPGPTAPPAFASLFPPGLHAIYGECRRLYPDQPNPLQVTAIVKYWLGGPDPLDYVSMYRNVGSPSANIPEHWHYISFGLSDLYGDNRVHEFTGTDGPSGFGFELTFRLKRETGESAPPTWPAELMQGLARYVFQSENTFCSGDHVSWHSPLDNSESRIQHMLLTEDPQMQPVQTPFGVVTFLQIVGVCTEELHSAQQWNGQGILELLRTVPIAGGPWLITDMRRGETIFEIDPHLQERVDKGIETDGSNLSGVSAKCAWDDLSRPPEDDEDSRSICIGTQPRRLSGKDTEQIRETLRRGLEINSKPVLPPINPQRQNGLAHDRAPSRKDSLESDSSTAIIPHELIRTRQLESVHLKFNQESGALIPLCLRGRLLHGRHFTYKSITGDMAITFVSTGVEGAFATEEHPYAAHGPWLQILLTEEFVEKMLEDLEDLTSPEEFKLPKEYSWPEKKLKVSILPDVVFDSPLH

Flag-SuFu (human) = molecular target: T4, Flag-SuFu (human) (UniProt Q9UMX1); experiment: co-IP; HEK-293T cells transfected with GFP-SNEP1 and Flag-SuFu or Flag-LNX1 for 48 h; immunoprecipitation and immunoblot
T4 sequence: T3 sequence

Flag-LNX1 = molecular target: T5, Flag-LNX1 (UniProt Q8TBB1); experiment: as above
T5 sequence: T2 sequence

[3] = molecular target: T6, SuFu fragment aa110–174 (human) (UniProt Q9UMX1); experiment: pull-down; SNEP1 pulled down by the aa110–174 fragment of SuFu (Fig. S3G); format not shown
T6 sequence: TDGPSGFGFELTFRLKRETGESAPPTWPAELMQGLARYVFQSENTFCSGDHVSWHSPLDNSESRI

- binding (GST-SNEP1 (human)): binds
B1: Flag-LNX1 (enzyme, UniProt Q8TBB1 1-728)
chain: T2 sequence

- binding [1]: binds
- binding [2]: binds
B2: SNEP1, endogenous in HT-29 cells (protein, UniProt Q8TAI1 1-123)
chain: T1 sequence

- binding (Flag-SuFu (human)): binds
- binding (Flag-LNX1): binds
B3: GFP-SNEP1 (protein, UniProt Q8TAI1 1-123)
chain: T1 sequence

- binding [3]: binds
B4: SNEP1 (construct of the domain-mapping experiments, Figs. S3E–H and S4A–D, not told) (protein, UniProt Q8TAI1 1-123)
chain: T1 sequence

Reference: article PMC7896051
